Measurements: the supplement of paper PMC10849652
Some of the results follow.

Sequences of proteins named here, by UniProt entry; tags and fusion partners are left off. A change or cut given only in a name is not applied to a line headed by its entry.
UniProt Q92879: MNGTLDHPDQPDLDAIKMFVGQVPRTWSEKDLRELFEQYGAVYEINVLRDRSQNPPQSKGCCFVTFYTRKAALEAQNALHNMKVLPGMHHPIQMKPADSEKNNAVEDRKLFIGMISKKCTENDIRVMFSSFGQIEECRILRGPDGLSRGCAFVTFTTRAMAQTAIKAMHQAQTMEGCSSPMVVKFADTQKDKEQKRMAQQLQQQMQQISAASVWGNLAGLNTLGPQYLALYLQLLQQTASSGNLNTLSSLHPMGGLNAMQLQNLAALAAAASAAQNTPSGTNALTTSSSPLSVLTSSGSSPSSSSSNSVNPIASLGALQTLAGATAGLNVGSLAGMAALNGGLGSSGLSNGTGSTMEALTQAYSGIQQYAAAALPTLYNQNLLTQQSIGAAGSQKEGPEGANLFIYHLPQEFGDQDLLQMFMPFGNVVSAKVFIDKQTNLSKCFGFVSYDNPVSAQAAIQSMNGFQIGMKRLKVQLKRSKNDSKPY
UniProt P49454: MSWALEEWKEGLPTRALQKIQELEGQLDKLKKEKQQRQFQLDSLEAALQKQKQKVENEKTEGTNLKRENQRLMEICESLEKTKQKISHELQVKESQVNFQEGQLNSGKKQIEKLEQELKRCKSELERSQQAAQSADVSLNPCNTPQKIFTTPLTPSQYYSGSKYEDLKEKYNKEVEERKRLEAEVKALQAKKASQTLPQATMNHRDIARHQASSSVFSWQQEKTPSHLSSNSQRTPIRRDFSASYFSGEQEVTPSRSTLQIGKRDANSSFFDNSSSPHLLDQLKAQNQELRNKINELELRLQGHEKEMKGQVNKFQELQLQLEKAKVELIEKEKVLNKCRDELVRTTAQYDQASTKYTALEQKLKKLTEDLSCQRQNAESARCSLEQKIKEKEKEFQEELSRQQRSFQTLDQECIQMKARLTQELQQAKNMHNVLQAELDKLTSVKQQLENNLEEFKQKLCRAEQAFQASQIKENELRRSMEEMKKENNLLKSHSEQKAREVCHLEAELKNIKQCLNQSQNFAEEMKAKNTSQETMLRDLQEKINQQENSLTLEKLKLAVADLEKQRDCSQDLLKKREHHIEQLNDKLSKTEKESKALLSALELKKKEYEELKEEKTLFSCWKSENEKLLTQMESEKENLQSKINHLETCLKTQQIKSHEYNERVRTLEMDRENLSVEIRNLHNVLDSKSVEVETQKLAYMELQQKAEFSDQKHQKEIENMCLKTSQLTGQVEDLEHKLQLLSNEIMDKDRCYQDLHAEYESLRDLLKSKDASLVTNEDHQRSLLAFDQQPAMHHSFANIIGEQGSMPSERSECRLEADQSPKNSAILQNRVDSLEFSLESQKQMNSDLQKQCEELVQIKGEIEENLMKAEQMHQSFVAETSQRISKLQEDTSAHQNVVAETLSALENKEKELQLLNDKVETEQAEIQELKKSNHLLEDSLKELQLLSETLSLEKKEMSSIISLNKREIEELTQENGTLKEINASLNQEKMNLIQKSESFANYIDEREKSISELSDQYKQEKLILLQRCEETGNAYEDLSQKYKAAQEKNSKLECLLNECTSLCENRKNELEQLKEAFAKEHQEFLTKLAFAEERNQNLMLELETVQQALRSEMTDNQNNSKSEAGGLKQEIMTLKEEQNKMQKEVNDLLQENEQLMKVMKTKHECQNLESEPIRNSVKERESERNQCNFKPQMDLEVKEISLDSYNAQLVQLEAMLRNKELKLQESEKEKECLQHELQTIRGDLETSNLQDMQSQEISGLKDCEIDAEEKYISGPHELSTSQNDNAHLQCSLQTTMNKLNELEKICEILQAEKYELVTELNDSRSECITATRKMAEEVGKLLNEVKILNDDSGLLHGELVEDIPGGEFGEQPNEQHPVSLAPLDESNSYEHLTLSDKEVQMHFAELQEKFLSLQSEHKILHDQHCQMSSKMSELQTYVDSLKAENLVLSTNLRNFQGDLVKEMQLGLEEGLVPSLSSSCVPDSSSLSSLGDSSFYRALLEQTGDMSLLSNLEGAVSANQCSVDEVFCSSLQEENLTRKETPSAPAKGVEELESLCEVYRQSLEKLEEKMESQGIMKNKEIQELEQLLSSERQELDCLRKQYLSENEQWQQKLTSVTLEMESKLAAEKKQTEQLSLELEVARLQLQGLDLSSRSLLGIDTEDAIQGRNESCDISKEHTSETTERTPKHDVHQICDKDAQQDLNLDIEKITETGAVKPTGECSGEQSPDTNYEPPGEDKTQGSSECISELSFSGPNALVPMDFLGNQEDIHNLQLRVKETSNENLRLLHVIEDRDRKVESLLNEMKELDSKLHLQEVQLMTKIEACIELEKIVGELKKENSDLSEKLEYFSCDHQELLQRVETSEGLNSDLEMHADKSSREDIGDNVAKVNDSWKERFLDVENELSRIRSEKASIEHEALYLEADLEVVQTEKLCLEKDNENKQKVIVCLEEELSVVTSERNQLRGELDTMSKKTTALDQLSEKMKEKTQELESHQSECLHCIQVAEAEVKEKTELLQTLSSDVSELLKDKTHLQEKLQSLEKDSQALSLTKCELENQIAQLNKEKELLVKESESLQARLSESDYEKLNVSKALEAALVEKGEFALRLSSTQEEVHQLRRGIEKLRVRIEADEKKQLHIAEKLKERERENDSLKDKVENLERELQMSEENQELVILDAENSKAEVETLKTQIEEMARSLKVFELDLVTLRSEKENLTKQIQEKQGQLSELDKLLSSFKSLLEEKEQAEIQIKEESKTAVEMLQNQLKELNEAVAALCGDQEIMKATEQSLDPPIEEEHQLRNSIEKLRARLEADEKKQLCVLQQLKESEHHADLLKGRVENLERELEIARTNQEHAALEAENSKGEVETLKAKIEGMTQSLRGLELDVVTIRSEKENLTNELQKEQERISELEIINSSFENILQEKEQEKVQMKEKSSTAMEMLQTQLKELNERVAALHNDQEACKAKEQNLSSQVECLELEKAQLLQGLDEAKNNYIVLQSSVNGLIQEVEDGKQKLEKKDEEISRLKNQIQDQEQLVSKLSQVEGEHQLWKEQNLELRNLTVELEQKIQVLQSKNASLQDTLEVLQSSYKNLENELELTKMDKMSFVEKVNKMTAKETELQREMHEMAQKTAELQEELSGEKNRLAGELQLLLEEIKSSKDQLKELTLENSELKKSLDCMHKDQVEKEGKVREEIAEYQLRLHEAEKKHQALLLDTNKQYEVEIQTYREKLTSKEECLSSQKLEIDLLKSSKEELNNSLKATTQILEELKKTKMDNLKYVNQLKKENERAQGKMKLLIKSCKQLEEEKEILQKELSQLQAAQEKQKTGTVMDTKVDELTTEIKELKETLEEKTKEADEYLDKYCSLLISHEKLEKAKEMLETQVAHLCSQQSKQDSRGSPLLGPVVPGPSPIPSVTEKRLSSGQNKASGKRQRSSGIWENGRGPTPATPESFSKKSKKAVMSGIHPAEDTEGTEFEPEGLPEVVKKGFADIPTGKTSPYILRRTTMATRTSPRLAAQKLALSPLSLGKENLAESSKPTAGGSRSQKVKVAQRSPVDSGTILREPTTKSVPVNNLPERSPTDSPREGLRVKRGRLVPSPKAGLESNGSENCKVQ
UniProt Q9Y6A4: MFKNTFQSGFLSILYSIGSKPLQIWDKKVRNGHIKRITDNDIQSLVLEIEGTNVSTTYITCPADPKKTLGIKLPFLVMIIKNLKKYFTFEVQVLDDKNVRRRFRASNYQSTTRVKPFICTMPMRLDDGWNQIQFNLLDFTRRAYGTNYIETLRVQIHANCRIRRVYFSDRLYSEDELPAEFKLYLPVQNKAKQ
UniProt Q00534, whole entry, looked up: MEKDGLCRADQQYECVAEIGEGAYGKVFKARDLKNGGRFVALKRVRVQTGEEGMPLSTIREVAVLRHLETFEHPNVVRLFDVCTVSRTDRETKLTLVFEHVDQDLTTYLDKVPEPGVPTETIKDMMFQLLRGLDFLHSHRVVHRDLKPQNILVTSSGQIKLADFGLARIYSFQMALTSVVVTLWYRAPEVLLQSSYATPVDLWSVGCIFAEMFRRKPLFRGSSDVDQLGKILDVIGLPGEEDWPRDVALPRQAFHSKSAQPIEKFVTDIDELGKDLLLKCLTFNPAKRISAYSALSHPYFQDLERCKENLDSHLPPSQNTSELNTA
UniProt O95319: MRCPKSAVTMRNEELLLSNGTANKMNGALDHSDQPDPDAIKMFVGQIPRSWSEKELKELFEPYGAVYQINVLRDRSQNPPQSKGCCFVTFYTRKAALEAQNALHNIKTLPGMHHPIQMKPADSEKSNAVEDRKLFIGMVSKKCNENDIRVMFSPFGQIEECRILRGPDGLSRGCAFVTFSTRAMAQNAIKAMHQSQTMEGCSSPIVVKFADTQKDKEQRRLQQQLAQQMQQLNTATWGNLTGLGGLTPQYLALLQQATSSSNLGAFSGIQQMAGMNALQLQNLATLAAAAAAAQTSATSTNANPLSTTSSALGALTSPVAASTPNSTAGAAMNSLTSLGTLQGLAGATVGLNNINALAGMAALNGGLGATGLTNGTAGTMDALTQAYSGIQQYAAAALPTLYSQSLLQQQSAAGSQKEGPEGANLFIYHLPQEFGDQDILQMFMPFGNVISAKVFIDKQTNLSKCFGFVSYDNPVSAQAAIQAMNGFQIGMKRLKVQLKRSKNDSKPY
UniProt Q69YH5: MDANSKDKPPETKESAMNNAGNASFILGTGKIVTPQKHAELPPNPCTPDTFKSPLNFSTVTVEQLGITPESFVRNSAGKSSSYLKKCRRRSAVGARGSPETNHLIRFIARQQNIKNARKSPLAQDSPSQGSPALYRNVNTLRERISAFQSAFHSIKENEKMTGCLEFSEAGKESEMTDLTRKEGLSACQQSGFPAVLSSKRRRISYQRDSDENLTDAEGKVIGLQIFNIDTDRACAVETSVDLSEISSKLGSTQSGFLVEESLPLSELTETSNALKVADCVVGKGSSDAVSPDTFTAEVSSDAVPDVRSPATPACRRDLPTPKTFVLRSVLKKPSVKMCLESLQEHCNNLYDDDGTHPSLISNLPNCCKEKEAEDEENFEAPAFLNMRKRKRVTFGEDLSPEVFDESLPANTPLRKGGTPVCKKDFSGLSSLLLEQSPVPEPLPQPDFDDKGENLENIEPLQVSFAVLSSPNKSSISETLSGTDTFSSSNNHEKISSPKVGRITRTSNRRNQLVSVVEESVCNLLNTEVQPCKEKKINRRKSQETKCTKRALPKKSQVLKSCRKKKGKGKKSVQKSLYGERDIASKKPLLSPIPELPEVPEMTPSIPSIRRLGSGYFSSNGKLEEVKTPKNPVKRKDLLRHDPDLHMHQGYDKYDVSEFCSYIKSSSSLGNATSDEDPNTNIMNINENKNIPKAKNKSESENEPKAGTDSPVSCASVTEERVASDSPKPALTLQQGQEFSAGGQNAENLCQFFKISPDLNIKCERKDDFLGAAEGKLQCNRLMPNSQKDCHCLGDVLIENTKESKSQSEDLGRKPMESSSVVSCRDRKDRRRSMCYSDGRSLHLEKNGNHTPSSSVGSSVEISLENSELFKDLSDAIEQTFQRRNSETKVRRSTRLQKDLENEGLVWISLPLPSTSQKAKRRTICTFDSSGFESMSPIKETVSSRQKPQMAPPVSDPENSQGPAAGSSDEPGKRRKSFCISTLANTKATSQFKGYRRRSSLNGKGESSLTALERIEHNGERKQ
UniProt Q9UFW8: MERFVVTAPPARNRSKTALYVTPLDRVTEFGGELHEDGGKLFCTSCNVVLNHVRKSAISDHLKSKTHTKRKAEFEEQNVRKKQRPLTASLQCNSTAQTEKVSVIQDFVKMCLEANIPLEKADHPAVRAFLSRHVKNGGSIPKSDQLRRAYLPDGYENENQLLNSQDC
UniProt Q8TAP6: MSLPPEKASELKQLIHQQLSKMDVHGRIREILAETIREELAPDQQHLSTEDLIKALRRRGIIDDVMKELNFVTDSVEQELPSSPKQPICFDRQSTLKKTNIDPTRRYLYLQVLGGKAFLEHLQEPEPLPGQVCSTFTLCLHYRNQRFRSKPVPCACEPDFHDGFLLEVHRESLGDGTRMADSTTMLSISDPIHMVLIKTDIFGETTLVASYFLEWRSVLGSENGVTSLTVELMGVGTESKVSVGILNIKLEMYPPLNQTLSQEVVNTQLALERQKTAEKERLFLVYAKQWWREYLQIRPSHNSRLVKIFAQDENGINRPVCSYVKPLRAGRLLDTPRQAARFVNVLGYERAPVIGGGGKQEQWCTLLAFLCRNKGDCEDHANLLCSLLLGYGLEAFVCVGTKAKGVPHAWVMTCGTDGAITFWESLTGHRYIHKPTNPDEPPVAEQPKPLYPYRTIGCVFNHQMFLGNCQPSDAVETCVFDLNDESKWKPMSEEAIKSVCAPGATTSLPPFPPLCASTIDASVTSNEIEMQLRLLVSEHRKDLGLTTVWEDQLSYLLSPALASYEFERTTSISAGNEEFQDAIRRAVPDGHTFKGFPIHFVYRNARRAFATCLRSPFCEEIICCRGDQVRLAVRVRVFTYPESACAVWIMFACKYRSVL

Columns and labels:
Test in all cases: log2 fold change, soluble protein after heating vs DMSO (PISA); higher = thermal stabilisation; K562 cells, 10 uM, 30 min; active = over 0.2 and 3.5 SD of the protein, either way, in both replicates (recomputed)
[1] = compound: NC(=O)Nc1cc(-c2cccc(F)c2)sc1C(=O)N[C@H]1CCCNC1
Summary of the method: (§1)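 K562 cells at 2×10^6 cells/mL were treated for 30 min with 10 μM compound, and aliquots were heated for 3 min over 48°C-58°C before pooling. Extraction used PBS with 0.5% NP-40 at 4°C, and soluble protein was the supernatant after 21,000xg for 90 min, measured by TMTpro 16plex LC-MS/MS with channel sums equalised. Thermal stability values, relative to control samples and from duplicates, are log2 fold changes.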

[2] = compound: NC(=O)c1cnc(N[C@@H]2CCCC[C@@H]2N)nc1Nc1cccc(-n2nccn2)c1
Summary of the method: as §1

[3] = compound: NC1(c2ccc(-c3nc4ccn5c(=O)[nH]nc5c4cc3-c3ccccc3)cc2)CCC1
Summary of the method: as §1

[4] = compound: NCC(=O)Nc1ccc(-n2nc(C(F)(F)F)cc2-c2ccc3c(ccc4ccccc43)c2)cc1
Summary of the method: as §1

[5] = compound: Nc1ccccc1NC(=O)c1ccc(CNC(=O)OCc2cccnc2)cc1 [entinostat]
Summary of the method: as §1

[6] = compound: O=C(CCCCCCC(=O)Nc1ccccc1)NO [vorinostat]
Summary of the method: as §1

[7] = compound: O=C(CCCCCCNC(=O)c1cnc(N(c2ccccc2)c2ccccc2Cl)nc1)NO [citarinostat]
Summary of the method: as §1

[8] = compound: O=C(O)c1ccc2c(c1)nc(Nc1cccc(Cl)c1)c1ccncc12 [silmitasertib]
Summary of the method: as §1

[9] = compound: O=C1NC(=O)C(c2cnc3ccccn23)=C1c1cn2c3c(cc(F)cc13)CN(C(=O)N1CCCCC1)CC2
Summary of the method: as §1

[10] = compound: c1cc(OCCN2CCCCC2)cc(-c2n[nH]c3ccc(-c4nnc[nH]4)cc23)c1
Summary of the method: as §1

Row | Target | log2 fold change [1] | log2 fold change [2] | log2 fold change [3] | log2 fold change [4] | log2 fold change [5] | log2 fold change [6] | log2 fold change [7] | log2 fold change [8] | log2 fold change [9] | log2 fold change [10]
1 | CDC42BPB (UniProt Q9Y5S2) | inactive: -0.205 | inactive: 0.054 | inactive: -0.254 | inactive: -0.012 | inactive: 0.155 | inactive: 0.06 | inactive: 0.085 | inactive: -0.087 | inactive: -0.057 | inactive: -0.201
2 | CELF1 isoform 4 (UniProt Q92879) | inactive: 0.051 | inactive: 0.02 | inactive: -0.097 | inactive: -0.051 | inactive: 0.113 | inactive: 0.03 | inactive: 0.072 | inactive: 0.057 | inactive: 0.077 | inactive: -0.115
3 | CEP44 (UniProt Q9C0F1) | inactive: -0.064 | inactive: -0.066 | inactive: -0.036 | inactive: 0.036 | inactive: 0.026 | inactive: 0.071 | inactive: 0.084 | inactive: 0.029 | inactive: 0.023 | inactive: 0.205
4 | CETN2 (UniProt P41208) | inactive: -0.051 | inactive: 0.024 | inactive: 0.102 | inactive: 0.076 | inactive: -0.033 | inactive: -0.122 | inactive: -0.1 | inactive: -0.028 | inactive: -0.027 | inactive: -0.091
5 | CENPF (UniProt P49454) | inactive: 0.097 | inactive: -0.03 | inactive: 0.05 | inactive: 0.034 | inactive: -0.029 | inactive: -0.002 | inactive: 0.005 | inactive: 0.111 | inactive: 0.035 | inactive: -0.046
6 | CFAP20 (UniProt Q9Y6A4) | inactive: -0.035 | inactive: -0.034 | inactive: -0.006 | inactive: -0.123 | inactive: 0.002 | inactive: 0.017 | inactive: 0.032 | inactive: 0.046 | inactive: 0.087 | inactive: -0.221
7 | CDC42EP1 (UniProt Q00587) | inactive: -0.272 | inactive: -0.258 | inactive: -0.399 | inactive: -0.063 | inactive: 0.1 | inactive: 0.158 | inactive: 0.108 | inactive: -0.04 | inactive: -0.118 | inactive: -0.138
8 | CERT isoform 3 (UniProt Q9Y5P4) | active: -0.323 | inactive: -0.103 | inactive: -0.101 | inactive: -0.045 | inactive: -0.008 | inactive: -0.025 | inactive: 0.065 | inactive: 0.034 | inactive: 0 | active: -0.418
9 | CDS2 (UniProt O95674) | inactive: -0.014 | inactive: 0.049 | inactive: -0.018 | inactive: 0.083 | inactive: 0.01 | inactive: 0.017 | inactive: 0.02 | inactive: -0.003 | inactive: -0.023 | inactive: 0.013
10 | CDK6 (UniProt Q00534) | inactive: -0.004 | inactive: -0.082 | inactive: -0.017 | inactive: -0.003 | inactive: 0.009 | inactive: 0.005 | inactive: -0.006 | inactive: 0.131 | inactive: 0.146 | inactive: 0.017
11 | CDK5 (UniProt Q00535) | inactive: -0.045 | inactive: -0.01 | inactive: -0.065 | inactive: -0.082 | inactive: 0.016 | inactive: 0.007 | inactive: 0.06 | inactive: 0.016 | inactive: -0.1 | inactive: -0.05
12 | CELF2 isoform 3 (UniProt O95319) | inactive: -0.047 | inactive: 0.009 | inactive: 0.017 | inactive: -0.017 | inactive: -0.048 | inactive: -0.044 | inactive: 0 | inactive: 0.051 | inactive: 0.102 | inactive: -0.021
13 | CERS2 (UniProt Q96G23) | inactive: -0.015 | inactive: 0 | inactive: -0.103 | inactive: -0.019 | inactive: 0.04 | inactive: 0.057 | inactive: 0.035 | inactive: -0.018 | inactive: 0.027 | inactive: -0.087
14 | CHERP (UniProt Q8IWX8) | inactive: 0.015 | inactive: -0.054 | inactive: -0.096 | inactive: -0.095 | inactive: 0.129 | inactive: 0.099 | inactive: -0.001 | inactive: 0.03 | inactive: -0.121 | inactive: -0.042
15 | CDK2 (UniProt P24941) | inactive: 0.016 | inactive: -0.037 | inactive: -0.062 | inactive: -0.023 | inactive: -0.002 | inactive: 0.012 | inactive: 0.022 | inactive: -0.065 | inactive: -0.112 | 
16 | CHD4 isoform 2 (UniProt Q14839) | inactive: -0.043 | inactive: -0.07 | inactive: -0.122 | inactive: -0.039 | inactive: 0.022 | inactive: 0.049 | inactive: 0.063 | inactive: 0.099 | inactive: -0.023 | inactive: -0.069
17 | CERS5 (UniProt Q8N5B7) | inactive: -0.045 | inactive: -0.018 | inactive: 0.015 | inactive: -0.031 | inactive: 0.074 | inactive: 0.006 | inactive: -0.058 | inactive: 0.056 | inactive: -0.05 | inactive: -0.017
18 | CDYL (UniProt Q9Y232) | inactive: 0.003 | inactive: -0.011 | inactive: 0 | inactive: 0.037 | inactive: -0.063 | inactive: -0.059 | inactive: -0.154 | inactive: 0.003 | inactive: 0.004 | inactive: 0.068
19 | CDK5RAP1 (UniProt Q96SZ6) | inactive: -0.107 | inactive: 0.047 | inactive: -0.114 | inactive: 0.199 | inactive: -0.008 | inactive: -0.089 | inactive: -0.055 | inactive: 0.06 | inactive: -0.023 | inactive: -0.031
20 | CDCA2 (UniProt Q69YH5) | inactive: -0.034 | inactive: -0.096 | inactive: -0.003 | inactive: 0.037 | inactive: -0.11 | inactive: 0 | inactive: -0.27 | inactive: 0.133 | inactive: 0.035 | inactive: 0.243
21 | CHCHD4 isoform 2 (UniProt Q8N4Q1) | inactive: 0.335 | inactive: 0.06 | inactive: -0.007 | inactive: 0.084 | inactive: 0.339 | inactive: 0.442 | inactive: -0.013 | inactive: 0.038 | inactive: 0.123 | inactive: 0.027
22 | CDK7 (UniProt P50613) | inactive: -0.017 | inactive: -0.027 | inactive: -0.003 | inactive: -0.03 | inactive: 0.014 | inactive: -0.007 | inactive: 0.03 | inactive: 0.008 | inactive: -0.042 | inactive: -0.022
23 | CHMP4A isoform 2 (UniProt Q9BY43) | inactive: 0.025 | inactive: -0.06 | inactive: -0.026 | inactive: -0.009 | inactive: -0.027 | inactive: -0.02 | inactive: -0.032 | inactive: 0.007 | inactive: 0.007 | inactive: 0.028
24 | CGGBP1 (UniProt Q9UFW8) | inactive: 0.054 | inactive: 0.016 | inactive: 0.052 | inactive: 0.005 | inactive: -0.007 | inactive: 0.008 | inactive: 0.059 | inactive: 0.001 | inactive: 0.046 | inactive: -0.057
25 | CHKA (UniProt P35790) | inactive: 0.015 | active: -0.316 | inactive: 0.014 | inactive: 0.012 | inactive: -0.023 | inactive: -0.034 | inactive: -0.055 | inactive: 0.013 | inactive: -0.011 | inactive: -0.012
26 | CHD6 (UniProt Q8TD26) | inactive: -0.105 | inactive: 0.655 | inactive: 0.236 | inactive: 0.381 | inactive: -0.013 | inactive: 0.174 | inactive: 0.046 | inactive: 0.405 | inactive: 0.232 | inactive: -0.13
27 | CHMP1B (UniProt Q7LBR1) | inactive: 0.002 | inactive: -0.072 | inactive: -0.081 | inactive: -0.063 | inactive: 0.018 | inactive: 0.043 | inactive: 0.006 | inactive: 0.072 | inactive: -0.076 | inactive: -0.019
28 | CEP76 (UniProt Q8TAP6) | inactive: -0.05 | inactive: -0.036 | inactive: -0.018 | inactive: 0.018 | inactive: -0.031 | inactive: -0.018 | inactive: -0.002 | inactive: -0.012 | inactive: -0.011 | inactive: 0.002
29 | CDK11B (UniProt P21127) | inactive: -0.114 | inactive: -0.012 | inactive: 0.031 | inactive: 0.006 | inactive: -0.111 | inactive: 0.064 | inactive: -0.047 | inactive: -0.061 | inactive: 0.072 | inactive: -0.301
30 | CHM (UniProt P24386) | inactive: 0.015 | inactive: -0.049 | inactive: -0.168 | inactive: 0.004 | inactive: 0.007 | inactive: -0.038 | inactive: 0.146 | inactive: 0.085 | inactive: -0.04 | inactive: -0.093

Reprinted at random: 2 entries already listed
Row | Target | log2 fold change [1] | log2 fold change [2] | log2 fold change [3] | log2 fold change [4] | log2 fold change [5] | log2 fold change [6] | log2 fold change [7] | log2 fold change [8] | log2 fold change [9] | log2 fold change [10]
25 | CHKA (UniProt P35790) | inactive: 0.015 | active: -0.316 | inactive: 0.014 | inactive: 0.012 | inactive: -0.023 | inactive: -0.034 | inactive: -0.055 | inactive: 0.013 | inactive: -0.011 | inactive: -0.012
4 | CETN2 (UniProt P41208) | inactive: -0.051 | inactive: 0.024 | inactive: 0.102 | inactive: 0.076 | inactive: -0.033 | inactive: -0.122 | inactive: -0.1 | inactive: -0.028 | inactive: -0.027 | inactive: -0.091
